PMC6520365, “Structural and functional characterization of the PDZ domain of the human phosphatase PTPN3 and its interaction with the human papillomavirus E6 oncoprotein” (Scientific Reports, 2019)

The chains behind the UniProt entries cited, without tags or fusion partners. Where a name states a change or a piece, a line headed by the entry shows the natural chain unless it says otherwise.
UniProt P26045: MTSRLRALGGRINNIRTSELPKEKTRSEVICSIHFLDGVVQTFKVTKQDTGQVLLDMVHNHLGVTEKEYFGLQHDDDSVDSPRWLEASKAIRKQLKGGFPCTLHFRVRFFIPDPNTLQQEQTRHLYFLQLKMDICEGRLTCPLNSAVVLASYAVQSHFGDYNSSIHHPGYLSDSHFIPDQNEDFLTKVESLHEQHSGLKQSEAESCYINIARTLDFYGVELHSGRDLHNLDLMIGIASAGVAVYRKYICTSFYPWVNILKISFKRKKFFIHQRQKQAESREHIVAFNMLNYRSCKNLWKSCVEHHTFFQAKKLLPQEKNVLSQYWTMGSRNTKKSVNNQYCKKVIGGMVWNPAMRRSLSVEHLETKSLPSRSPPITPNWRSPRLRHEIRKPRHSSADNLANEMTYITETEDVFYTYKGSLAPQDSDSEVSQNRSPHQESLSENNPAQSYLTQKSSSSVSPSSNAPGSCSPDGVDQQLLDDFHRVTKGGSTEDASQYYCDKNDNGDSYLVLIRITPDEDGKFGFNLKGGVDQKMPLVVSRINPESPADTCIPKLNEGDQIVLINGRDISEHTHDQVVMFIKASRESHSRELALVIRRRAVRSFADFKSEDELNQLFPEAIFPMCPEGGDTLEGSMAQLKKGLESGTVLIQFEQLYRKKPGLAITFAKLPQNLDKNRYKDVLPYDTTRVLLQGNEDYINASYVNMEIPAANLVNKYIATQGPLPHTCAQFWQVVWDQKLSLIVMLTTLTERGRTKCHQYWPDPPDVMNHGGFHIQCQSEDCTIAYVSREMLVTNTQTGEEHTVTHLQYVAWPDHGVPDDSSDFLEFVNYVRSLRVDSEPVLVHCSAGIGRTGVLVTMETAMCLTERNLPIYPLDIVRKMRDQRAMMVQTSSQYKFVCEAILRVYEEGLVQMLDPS

Biological target: PDZ domain of the human protein tyrosine phosphatase non-receptor type 3 (PTPN3-PDZ) (human) (UniProt P26045)
Assay: differential scanning calorimetry (DSC); 28 μM PTPN3-PDZ with a large excess of peptide (about 200-600 μM), buffer A, scanned from 10 °C to 90-100 °C at 200 °C/h; rise of Tm against the free domain; both purified

Binder | binding
RRRRSQSRESQC [HBVc PBM peptide (C-terminal sequence of the hepatitis B virus core protein)] | binds
SWARVSKETPL [p38γ PBM peptide (C-terminal sequence of the MAP kinase p38γ)] | binds

No constants are given. Whether binding was seen depends on the method and setting. Binding calls can cover weak binding; strength is not graded here.
